Common to all, as to experiment: PRISMA enrichment of interactor (LFQ) in peptide spot vs all other peptide spots (log2 fold change); higher = stronger / more specific binding of the interactor to the peptide
For one test, the target named is APLP2, Q06481. As to the method:
(§1)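 PRISMA: 15-aa overlapping tiles (offset 8 aa) of 60 microproteins, plus SOS1/GLUT1 control peptides, were spot-synthesized on cellulose membranes in triplicate. Membranes were incubated with benzonase-treated HEK293T lysate, and bound proteins were identified by LC-MS/MS with LFQ. Enrichment is the log2 fold change of each protein in one spot versus all other spots. Only interactors passing the significance cutoff are listed.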

Protein sequences, listed by entry. Tags and fused reporters are not part of them.
APLP2, Q06481, UniProt Q06481, whole entry: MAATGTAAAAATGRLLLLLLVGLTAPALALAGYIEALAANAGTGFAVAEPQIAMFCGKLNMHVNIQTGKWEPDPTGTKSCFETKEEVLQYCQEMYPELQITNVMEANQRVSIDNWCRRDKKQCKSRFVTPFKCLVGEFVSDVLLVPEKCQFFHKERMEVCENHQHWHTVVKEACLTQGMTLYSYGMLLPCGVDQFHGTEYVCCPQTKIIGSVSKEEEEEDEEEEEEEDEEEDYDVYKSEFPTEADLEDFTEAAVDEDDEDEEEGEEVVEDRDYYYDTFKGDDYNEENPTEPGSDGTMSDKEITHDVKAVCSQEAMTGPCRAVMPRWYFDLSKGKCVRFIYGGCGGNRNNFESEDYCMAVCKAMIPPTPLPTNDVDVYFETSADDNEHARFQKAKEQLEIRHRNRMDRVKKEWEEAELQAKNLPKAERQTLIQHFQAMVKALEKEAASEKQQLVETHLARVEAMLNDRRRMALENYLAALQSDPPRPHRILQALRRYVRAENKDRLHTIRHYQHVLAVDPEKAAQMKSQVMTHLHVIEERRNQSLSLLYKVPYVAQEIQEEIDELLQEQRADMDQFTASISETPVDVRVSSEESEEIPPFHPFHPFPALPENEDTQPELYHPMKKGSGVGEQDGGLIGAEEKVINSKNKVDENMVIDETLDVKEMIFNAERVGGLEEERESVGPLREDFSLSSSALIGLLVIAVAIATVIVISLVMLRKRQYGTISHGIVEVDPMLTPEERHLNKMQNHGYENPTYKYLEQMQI
EIF3B, P55884, UniProt P55884, whole entry: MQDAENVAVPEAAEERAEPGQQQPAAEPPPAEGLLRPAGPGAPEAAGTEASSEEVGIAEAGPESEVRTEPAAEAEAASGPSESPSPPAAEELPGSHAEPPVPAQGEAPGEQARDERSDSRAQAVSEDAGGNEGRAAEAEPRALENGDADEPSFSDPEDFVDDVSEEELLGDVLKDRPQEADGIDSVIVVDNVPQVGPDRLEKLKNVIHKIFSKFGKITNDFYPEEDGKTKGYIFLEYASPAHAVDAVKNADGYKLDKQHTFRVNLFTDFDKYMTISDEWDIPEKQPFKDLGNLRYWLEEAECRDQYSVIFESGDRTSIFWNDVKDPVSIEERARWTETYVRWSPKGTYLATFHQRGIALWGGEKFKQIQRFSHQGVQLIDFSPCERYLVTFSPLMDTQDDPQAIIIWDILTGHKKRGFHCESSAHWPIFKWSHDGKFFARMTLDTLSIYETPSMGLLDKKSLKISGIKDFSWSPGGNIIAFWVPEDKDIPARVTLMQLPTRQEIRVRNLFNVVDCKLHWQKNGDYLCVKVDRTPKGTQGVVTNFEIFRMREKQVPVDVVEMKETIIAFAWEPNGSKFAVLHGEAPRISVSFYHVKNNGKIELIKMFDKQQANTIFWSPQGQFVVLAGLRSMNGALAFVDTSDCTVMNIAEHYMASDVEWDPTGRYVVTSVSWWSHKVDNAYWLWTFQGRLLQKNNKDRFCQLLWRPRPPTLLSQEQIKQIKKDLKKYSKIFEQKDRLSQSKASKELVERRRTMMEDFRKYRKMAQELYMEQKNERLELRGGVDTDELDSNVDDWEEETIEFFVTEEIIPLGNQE
HIST1H1E, P10412, UniProt P10412, whole entry: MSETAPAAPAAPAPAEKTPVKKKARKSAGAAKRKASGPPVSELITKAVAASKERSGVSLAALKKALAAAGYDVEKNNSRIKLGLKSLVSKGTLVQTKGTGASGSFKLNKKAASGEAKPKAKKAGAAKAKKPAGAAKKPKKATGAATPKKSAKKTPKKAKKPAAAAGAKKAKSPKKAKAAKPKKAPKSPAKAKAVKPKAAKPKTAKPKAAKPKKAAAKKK
HTT, P42858, UniProt P42858, whole entry: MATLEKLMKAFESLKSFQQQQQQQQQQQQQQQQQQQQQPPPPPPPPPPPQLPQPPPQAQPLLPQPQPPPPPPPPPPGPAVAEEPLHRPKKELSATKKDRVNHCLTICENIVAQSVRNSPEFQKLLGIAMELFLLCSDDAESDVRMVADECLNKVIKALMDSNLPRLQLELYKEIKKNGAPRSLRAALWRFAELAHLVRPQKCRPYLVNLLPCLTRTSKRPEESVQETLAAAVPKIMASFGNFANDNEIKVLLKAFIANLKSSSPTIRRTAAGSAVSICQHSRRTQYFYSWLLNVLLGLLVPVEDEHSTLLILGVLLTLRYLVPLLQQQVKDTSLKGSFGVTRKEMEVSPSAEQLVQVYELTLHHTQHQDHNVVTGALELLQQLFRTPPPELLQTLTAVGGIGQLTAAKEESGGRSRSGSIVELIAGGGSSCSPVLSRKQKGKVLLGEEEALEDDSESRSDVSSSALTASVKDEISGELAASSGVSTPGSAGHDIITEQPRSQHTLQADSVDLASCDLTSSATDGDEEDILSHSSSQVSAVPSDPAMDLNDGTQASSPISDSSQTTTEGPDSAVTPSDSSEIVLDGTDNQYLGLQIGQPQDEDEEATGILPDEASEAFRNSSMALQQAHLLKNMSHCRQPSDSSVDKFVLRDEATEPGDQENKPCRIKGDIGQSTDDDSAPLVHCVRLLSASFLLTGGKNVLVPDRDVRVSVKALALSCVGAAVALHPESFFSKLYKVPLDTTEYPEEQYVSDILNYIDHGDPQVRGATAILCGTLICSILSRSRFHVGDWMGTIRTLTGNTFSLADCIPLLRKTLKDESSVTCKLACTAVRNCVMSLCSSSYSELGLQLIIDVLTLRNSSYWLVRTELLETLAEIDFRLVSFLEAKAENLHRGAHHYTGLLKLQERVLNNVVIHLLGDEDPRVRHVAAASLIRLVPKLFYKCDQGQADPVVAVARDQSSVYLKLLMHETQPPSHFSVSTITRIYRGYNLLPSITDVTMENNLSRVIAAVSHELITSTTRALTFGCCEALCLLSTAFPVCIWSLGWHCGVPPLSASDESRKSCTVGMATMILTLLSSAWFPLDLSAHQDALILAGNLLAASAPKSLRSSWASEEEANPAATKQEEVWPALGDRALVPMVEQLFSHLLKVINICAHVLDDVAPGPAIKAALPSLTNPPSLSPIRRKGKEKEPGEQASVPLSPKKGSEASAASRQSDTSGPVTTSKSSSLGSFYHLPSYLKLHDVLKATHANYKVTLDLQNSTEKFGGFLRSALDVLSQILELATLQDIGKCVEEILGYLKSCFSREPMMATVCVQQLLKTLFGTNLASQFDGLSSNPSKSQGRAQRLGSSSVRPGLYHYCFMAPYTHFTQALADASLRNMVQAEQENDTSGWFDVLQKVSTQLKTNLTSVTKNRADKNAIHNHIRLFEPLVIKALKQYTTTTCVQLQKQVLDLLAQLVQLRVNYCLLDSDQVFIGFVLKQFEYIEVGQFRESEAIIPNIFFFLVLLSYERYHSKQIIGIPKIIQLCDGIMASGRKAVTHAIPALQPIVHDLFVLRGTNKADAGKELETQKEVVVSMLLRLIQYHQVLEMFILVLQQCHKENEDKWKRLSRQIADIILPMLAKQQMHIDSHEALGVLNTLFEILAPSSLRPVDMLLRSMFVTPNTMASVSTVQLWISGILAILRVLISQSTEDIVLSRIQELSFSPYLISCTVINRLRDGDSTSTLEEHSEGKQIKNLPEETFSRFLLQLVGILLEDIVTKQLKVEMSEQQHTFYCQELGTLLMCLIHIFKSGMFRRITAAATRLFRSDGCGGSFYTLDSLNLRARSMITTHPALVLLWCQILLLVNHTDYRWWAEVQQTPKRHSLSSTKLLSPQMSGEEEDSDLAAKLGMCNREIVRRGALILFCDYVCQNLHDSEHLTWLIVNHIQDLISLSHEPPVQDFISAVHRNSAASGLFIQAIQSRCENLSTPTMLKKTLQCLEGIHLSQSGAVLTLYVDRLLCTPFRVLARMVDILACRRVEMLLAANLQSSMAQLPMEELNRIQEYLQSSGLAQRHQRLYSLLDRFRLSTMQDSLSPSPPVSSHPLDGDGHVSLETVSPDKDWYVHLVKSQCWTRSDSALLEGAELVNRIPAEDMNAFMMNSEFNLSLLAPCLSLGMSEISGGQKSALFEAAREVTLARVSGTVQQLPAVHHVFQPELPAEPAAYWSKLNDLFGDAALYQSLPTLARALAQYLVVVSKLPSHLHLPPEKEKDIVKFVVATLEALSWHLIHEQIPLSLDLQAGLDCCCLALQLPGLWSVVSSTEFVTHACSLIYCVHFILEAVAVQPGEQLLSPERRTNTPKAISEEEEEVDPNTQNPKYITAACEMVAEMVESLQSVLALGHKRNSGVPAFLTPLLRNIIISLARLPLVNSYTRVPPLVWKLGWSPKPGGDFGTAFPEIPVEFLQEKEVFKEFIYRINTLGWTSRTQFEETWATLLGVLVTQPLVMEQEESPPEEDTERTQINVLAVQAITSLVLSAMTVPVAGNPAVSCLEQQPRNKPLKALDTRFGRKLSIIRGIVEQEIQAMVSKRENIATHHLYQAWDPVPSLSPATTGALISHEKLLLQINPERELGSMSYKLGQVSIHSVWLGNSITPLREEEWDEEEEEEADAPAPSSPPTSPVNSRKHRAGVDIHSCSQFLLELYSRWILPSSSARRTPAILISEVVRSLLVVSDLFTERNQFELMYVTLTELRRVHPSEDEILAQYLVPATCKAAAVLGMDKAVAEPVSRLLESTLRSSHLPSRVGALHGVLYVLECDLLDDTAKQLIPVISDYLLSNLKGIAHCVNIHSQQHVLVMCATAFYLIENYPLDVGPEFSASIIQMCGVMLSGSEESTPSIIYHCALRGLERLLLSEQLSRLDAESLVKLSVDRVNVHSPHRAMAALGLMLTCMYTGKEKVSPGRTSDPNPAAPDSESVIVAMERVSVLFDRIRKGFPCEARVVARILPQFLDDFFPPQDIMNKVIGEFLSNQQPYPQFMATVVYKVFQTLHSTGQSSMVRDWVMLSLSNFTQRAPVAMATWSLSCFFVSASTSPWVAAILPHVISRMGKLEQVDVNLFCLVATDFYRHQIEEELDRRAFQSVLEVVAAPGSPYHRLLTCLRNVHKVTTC
NDUFS8, O00217, UniProt O00217, whole entry: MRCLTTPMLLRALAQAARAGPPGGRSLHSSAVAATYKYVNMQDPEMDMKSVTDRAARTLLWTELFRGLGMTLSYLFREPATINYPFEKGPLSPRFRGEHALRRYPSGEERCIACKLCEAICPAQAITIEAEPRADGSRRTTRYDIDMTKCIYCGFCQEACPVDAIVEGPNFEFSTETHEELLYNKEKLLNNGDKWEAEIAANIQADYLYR
SEC61B, P60468, UniProt P60468, whole entry: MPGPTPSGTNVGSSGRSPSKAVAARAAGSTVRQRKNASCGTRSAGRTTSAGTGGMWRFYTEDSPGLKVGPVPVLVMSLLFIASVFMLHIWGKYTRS
CAMP, P49913, UniProt P49913, whole entry: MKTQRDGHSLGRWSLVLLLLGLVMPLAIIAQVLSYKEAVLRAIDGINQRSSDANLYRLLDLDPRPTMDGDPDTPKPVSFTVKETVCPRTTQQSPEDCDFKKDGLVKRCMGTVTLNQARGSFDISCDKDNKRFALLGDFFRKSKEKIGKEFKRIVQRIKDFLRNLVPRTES
PABPC4, Q13310, UniProt Q13310, whole entry: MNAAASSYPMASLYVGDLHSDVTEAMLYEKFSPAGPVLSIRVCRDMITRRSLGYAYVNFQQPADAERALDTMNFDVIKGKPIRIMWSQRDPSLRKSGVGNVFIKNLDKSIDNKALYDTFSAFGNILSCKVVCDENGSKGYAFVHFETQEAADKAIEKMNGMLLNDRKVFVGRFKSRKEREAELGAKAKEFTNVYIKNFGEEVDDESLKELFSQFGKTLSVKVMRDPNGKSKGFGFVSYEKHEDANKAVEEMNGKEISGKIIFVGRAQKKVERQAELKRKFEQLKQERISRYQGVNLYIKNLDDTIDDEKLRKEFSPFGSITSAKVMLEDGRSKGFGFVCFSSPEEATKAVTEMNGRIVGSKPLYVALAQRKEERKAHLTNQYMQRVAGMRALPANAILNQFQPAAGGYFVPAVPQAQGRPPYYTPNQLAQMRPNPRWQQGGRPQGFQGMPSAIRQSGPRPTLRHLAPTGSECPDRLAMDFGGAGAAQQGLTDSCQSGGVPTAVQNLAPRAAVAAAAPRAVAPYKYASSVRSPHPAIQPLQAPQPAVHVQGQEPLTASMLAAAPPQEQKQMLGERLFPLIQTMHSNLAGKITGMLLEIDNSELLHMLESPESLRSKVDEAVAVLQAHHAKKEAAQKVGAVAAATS
SRSF1, Q07955, UniProt Q07955, whole entry: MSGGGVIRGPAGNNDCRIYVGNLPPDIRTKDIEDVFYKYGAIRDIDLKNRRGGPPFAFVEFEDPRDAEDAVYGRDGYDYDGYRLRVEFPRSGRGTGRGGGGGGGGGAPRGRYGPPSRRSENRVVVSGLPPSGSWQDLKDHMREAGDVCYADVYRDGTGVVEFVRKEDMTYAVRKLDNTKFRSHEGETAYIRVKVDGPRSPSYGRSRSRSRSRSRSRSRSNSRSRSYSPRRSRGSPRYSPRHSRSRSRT

For another test, the target named is CSDE1, O75534. As to the method:
as §1

A further test deals with DNAJB11, Q9UBS4. The protocol: as §1
A further test has as its target EIF3B, P55884. The protocol: as §1
A further test has as its target FAM120A, Q9NZB2. As to the method: as §1
For another test, the target named is GRB2, P62993. The protocol:
as §1

Another test addresses HIST1H1E, P10412. As to the method:
as §1

A further test concerns the target HP, P00738. As to the method: as §1
Another test addresses HTT, P42858. As to the method: as §1
Another test deals with MLF2, Q15773. As to the method: as §1
The target of another test is MRPS9, P82933. As to the method: as §1
The next test deals with NAA50, Q9GZZ1. The protocol:
as §1

The target in the next test is NDUFS8, O00217. As to the method: as §1
The target of the next test is NOL6, Q9H6R4. As to the method:
as §1

A further test deals with ORC4, O43929. The protocol:
as §1

The next test concerns the target ORMDL1, Q9P0S3. As to the method: as §1
The target of another test is OXSR1, O95747. The protocol:
as §1

In another test the target is PYCR3, Q53H96. As to the method: as §1
The target of the next test is PYM1, Q9BRP8. The protocol: as §1
Another test addresses QRICH1, Q2TAL8. The protocol: as §1
Another test addresses RNF219, Q5W0B1. The protocol:
as §1

Another test deals with SEC16A, O15027. As to the method: as §1
The next test deals with SEC61B, P60468. The protocol:
as §1

In a further test the target is SH3GL1, Q99961. The protocol: as §1
Another test has as its target SLC25A1, P53007. The protocol:
as §1

Another test addresses SMARCA5, O60264. The protocol: as §1
Another test has as its target SNX9, Q9Y5X1. The protocol:
as §1

The target in the next test is STAT1, P42224. The protocol: as §1
In a further test the target is TCAF1, Q9Y4C2. As to the method: as §1
The next test addresses TMA16, Q96EY4. As to the method:
as §1

The target of another test is TPD52L2, O43399. As to the method:
as §1

Another test has as its target UBA1, P22314. As to the method: as §1
A further test has as its target UHRF1, Q96T88. As to the method: as §1
The target of another test is YTHDC1, Q96MU7. The protocol:
as §1

The target in the next test is ZMYM4, Q5VZL5. The protocol:
as §1

A further test addresses ZW10, O43264. As to the method:
as §1

In another test the target is APEX1, P27695. As to the method: as §1
A further test concerns the target CAMP, P49913. The protocol: as §1
In the next test the target is JAGN1, Q8N5M9. The protocol: as §1
Another test addresses NUFIP2, Q7Z417. The protocol:
as §1

A further test has as its target PABPC4, Q13310. As to the method: as §1
The target in another test is RRP15, Q9Y3B9. As to the method:
as §1

The next test concerns the target SRSF1, Q07955. The protocol:
as §1

A further test has as its target SRSF7, Q16629. As to the method: as §1
For the next test, the target named is TAF15, Q92804. As to the method:
as §1

A further test concerns the target TRA2B, P62995. As to the method: as §1
The next test has as its target TRMT5, Q32P41. As to the method: as §1
Another test has as its target UTP18, Q9Y5J1. As to the method:
as §1

For a further test, the target named is CDCA7, Q9BWT1. The protocol: as §1
A further test deals with DDX1, Q92499. As to the method: as §1
For the next test, the target named is EIF2B2, P49770. The protocol:
as §1

In another test the target is EIF2D, P41214. The protocol: as §1
The target in the next test is EMD, P50402. As to the method: as §1
The target in another test is MCM2, P49736. As to the method:
as §1

Another test has as its target MDN1, Q9NU22. The protocol:
as §1

The next test concerns the target MRPL49, Q13405. The protocol:
as §1

The target of another test is RBM12B, Q8IXT5. As to the method: as §1
The next test addresses SMC3, Q9UQE7. As to the method: as §1
A further test addresses ZNHIT6, Q9NWK9. The protocol: as §1

Some of the results follow. The list holds hits alone, and they repeat only in part.

The source of these data is the supplement of paper PMC10032668.

Take SSPPGRPTSSCRSSL [RAB12]: the “PRISMA enrichment of interactor (log2)” value was determined as 6.35 in the test with APLP2, Q06481; 4.89 with CSDE1, O75534; 6.86 with DNAJB11, Q9UBS4; 4.89 with EIF3B, P55884; 5.89 in the test with FAM120A, Q9NZB2; 6.34 with GRB2, P62993. Further, the “PRISMA enrichment of interactor (log2)” value with HIST1H1E, P10412 is 6.7; with HP, P00738, 8.44; with HTT, P42858 it was 4.53; with MLF2, Q15773, 4.45; with MRPS9, P82933, 6.23; in the test with NAA50, Q9GZZ1, 4.59. Besides, the “PRISMA enrichment of interactor (log2)” value in the test with NDUFS8, O00217 amounted to 3.87; in the test with NOL6, Q9H6R4 it was 6.22; with ORC4, O43929 it was 4.32; in the test with ORMDL1, Q9P0S3 it was 7.5; with OXSR1, O95747 it was 8.25; in the test with PYCR3, Q53H96 it was 8.73. For the same molecule, the “PRISMA enrichment of interactor (log2)” value with PYM1, Q9BRP8 was found to be 4.07; with QRICH1, Q2TAL8 it was 4.92; with RNF219, Q5W0B1, 5.39; in the test with SEC16A, O15027, 4.88; in the test with SEC61B, P60468, 5.12; with SH3GL1, Q99961, 6.35. The “PRISMA enrichment of interactor (log2)” value with SLC25A1, P53007 turned out to be 6; in the test with SMARCA5, O60264, 5.42; in the test with SNX9, Q9Y5X1, 4.44; with STAT1, P42224 it was 4.36; with TCAF1, Q9Y4C2 it was 6.21; in the test with TMA16, Q96EY4 it was 4.53. Also, the “PRISMA enrichment of interactor (log2)” value with TPD52L2, O43399 stood at 5.34; in the test with UBA1, P22314, 5.43; with UHRF1, Q96T88 it was 9.73; with YTHDC1, Q96MU7, 7.27; in the test with ZMYM4, Q5VZL5, 4.02; with ZW10, O43264, 5.84.
On to HGSSFSHKSRNATDY [RP11-12K22.1], for which the “PRISMA enrichment of interactor (log2)” value in the test with APEX1, P27695 amounted to 6.89; in the test with CAMP, P49913, 6; with JAGN1, Q8N5M9, 4.38; with NUFIP2, Q7Z417, 5.41; with PABPC4, Q13310, 5.31; with RRP15, Q9Y3B9, 4.69. The “PRISMA enrichment of interactor (log2)” value with SRSF1, Q07955 is 5.78; with SRSF7, Q16629 it was 6.73; in the test with TAF15, Q92804, 4.88; with TRA2B, P62995 it was 6.6; in the test with TRMT5, Q32P41, 4.45; with UTP18, Q9Y5J1 it was 4.56.
Consider GLECSLGRRASTCSP [SNHG8], for which the “PRISMA enrichment of interactor (log2)” value with APLP2, Q06481 turned out to be 4.87; with CDCA7, Q9BWT1 it was 4.34; with DDX1, Q92499, 5.89; with EIF2B2, P49770, 6.72; with EIF2D, P41214 it was 4.18; in the test with EMD, P50402, 4.73. In addition, the “PRISMA enrichment of interactor (log2)” value with MCM2, P49736 was found to be 5.01; with MDN1, Q9NU22, 4.4; with MRPL49, Q13405, 5.12; with RBM12B, Q8IXT5, 5.17; with SMC3, Q9UQE7 it was 4.53; in the test with ZNHIT6, Q9NWK9 it was 4.1.
